Residue numbers refer to the chain shown, from its start. Numbers in names are those of the source. No constants are given. Whether binding was seen depends on the method and setting. Some entries that bind do so weakly or less than the wild type. One block for each binder: values may come before it.
Columns and labels:
[1] = target: MUC1-GST fusion protein containing seven variable number tandem repeat (VNTR) region (UniProt P15941); assay: ELISA, plate-coated MUC1-GST
[2] = target: MUC1-GST fusion protein containing seven variable number tandem repeat (VNTR) region (UniProt P15941); assay: ELISA, plate-coated MUC1-GST; antibody from transient transfection
[3] = target: MUC1-GST fusion protein containing seven variable number tandem repeat (VNTR) region (UniProt P15941); assay: ELISA, plate-coated MUC1-GST; antibody from stable NS0 line
[4] = target: MUC1-GST fusion protein containing seven variable number tandem repeat (VNTR) region (UniProt P15941); assay: ELISA, plate-coated MUC1-GST; NS0 against CHO material
[5] = target: MUC1-GST fusion protein containing seven variable number tandem repeat (VNTR) region (UniProt P15941); assay: ELISA, plate-coated MUC1-GST; antibody from transient CHO transfection

The chains behind the UniProt entries cited, without tags or fusion partners. Residues count along the entry.
UniProt P15941, residues 126-265: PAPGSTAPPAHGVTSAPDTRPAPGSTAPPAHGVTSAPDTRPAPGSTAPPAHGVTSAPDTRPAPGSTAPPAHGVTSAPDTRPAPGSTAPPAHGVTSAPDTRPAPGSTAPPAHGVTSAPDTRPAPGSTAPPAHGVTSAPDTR

B1: N56A HMFG1 (antibody, human IgG1, kappa, V domains shown)
VH: QVQLVQSGAEVKKPGASVKVSCKASGYTFSAYWIEWVRQAPGKGLEWVGEILPGSANSRYNEKFKGRVTVTRDTSTNTAYMELSSLRSEDTAVYYCARSYDFAWFAYWGQGTLVTVSS
VL: DIQMTQSPSSLSASVGDRVTITCKSSQSLLYSSNQKIYLAWYQQKPGKAPKLLIYWASTRESGVPSRFSGSGSGTDFTFTISSLQPEDIATYYCQQYYRYPRTFGQGTKVEIKR
binding [1]: binds

B4: N56C HMFG1 (antibody, human IgG1, kappa, V domains shown)
VH: B1 VH with A56C
VL: B1 VL
binding [1]: binds

Other lines, results leading:

binding [1]: binds | binding [2]: binds
B2: N56V HMFG1 (antibody, human IgG1, kappa, V domains shown)
VH: B1 VH with A56V
VL: B1 VL

binding [3]: binds | binding [1]: binds | binding [4]: binds | binding [5]: binds
B3: N56G HMFG1 (antibody, human IgG1, kappa, V domains shown)
VH: B1 VH with A56G
VL: B1 VL
notes: also called N56G mutant

Reference: US20090110632A1 (published 2009)
